Values of other authors in patent publication US9382205B2, “Processes for the manufacture of a pharmaceutically active agent” (H. Lundbeck A/S, priority 2009, dated 2016).

Biological target: human 5-HT6 receptor
Conditions: from Roth et al. 1994

## OCCOCCN1CCN(C2=Nc3ccccc3Sc3ccccc32)CC1 [quetiapine]
  Ki: 33 nM
